Reference: PMC7819943, “Rice protein-binding microarrays: a tool to detect cis-acting elements near promoter regions in rice”
The list shows a part of the results.

Amino acid sequences for entries named in this document (tags omitted).
UniProt Q0JBA9, entry or part of it: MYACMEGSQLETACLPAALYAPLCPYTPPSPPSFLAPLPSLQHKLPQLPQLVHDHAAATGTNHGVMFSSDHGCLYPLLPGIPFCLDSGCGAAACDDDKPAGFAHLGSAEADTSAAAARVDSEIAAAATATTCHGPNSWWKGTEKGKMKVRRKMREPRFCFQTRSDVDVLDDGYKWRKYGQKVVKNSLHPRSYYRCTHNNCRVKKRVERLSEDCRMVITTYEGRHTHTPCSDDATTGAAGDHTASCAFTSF

What follows are sequences tested against OsWRKY34 (Oryza sativa, UniProt Q0JBA9 1-250) (assay: protein-binding microarray (RPBM); PBS, 2% BSA, 51.3 ng/ul salmon testes DNA, 50 uM zinc acetate, 200 nM TF, 25 C, 1 h; high values mean tight binding). Details: protein: recombinant; tags: N-terminal polyhistidine and DsRed monomer fusion (pET32a); label: CyDye5-dUTP incorporated in the synthesized complementary strand; 3' TTTTT single-stranded linker to array surface; dsDNA, one strand shown.
Outline: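 Per-feature fluorescence intensity (arbitrary units), read on an Axon 4000B scanner, is the binding signal. Transcription factors carrying an N-terminal polyhistidine tag and DsRed fusion were expressed in E. coli BL21-CodonPlus and purified on Ni–NTA. A custom Agilent array, made double-stranded by primer extension with Cy5-dUTP and blocked with 2% BSA, was incubated with 200 nM protein in PBS, 2% BSA, salmon testes DNA and 50 µM zinc acetate at 25 °C for 1 h and then washed.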

Row | Sequence | binding signal
1 | TTCCCTTGTGTTTTTTGCTGACTGGTTGTGCTCTTTAATTCGGAGTCACCTAGTGCAG | 8940 fluorescence intensity (a.u.)
2 | CCTGCCCGGTGTGCTGTGACTTGCCGTTATCGTCACCGTTCGGAGTCACCTAGTGCAG | 10200 fluorescence intensity (a.u.)
3 | GCATGAGGCCCAGTTTCTTCCTCTCTTCACTCTCTCTCTTCGGAGTCACCTAGTGCAG | 8350 fluorescence intensity (a.u.)
4 | GGGAGTGAGTATGACTGTATGACATGTGGGGTTTATTTTTCGGAGTCACCTAGTGCAG | 12500 fluorescence intensity (a.u.)
5 | CTTCACTCCGGAGTCTCTCGTCCTCTCGGGCCACCCACCACGGAGTCACCTAGTGCAG | 8160 fluorescence intensity (a.u.)
6 | ATATTATTTTACTCGCTCTAATCCTACTATTTTCTTTTACCGGAGTCACCTAGTGCAG | 8030 fluorescence intensity (a.u.)
7 | TTCTTATCTATCACTCGATTTTCTCTCTCAATTTTACATTCGGAGTCACCTAGTGCAG | 9960 fluorescence intensity (a.u.)
8 | GTTTTTTTTCTCTATGTCCCTAGCTTCGCTTTCCTTCTTTCGGAGTCACCTAGTGCAG | 11900 fluorescence intensity (a.u.)
9 | TCACGCACGCCAGTTGTCACGCCACCCACTTTGCGCCATGCGGAGTCACCTAGTGCAG | 8640 fluorescence intensity (a.u.)
10 | TTATTACAGTGTTTTACTCCTACTACTACTTACTTCTCTTCGGAGTCACCTAGTGCAG | 10100 fluorescence intensity (a.u.)
11 | GCTCCTCACTTCGCTGTTTTTTTTTTTGGGTTTGTTCGGGCGGAGTCACCTAGTGCAG | 11200 fluorescence intensity (a.u.)
12 | CCGCCTCGCCTCGCCTCGCTGCCTGCGCTTCACAAATCACCGGAGTCACCTAGTGCAG | 10500 fluorescence intensity (a.u.)
13 | ATCATGTCCTTTTTGACAACCTACTTCTTCAGTTACATCGCGGAGTCACCTAGTGCAG | 8690 fluorescence intensity (a.u.)
14 | ACGTGGGCCTCACATGTCATACTATCTACGTCATCTCCTACGGAGTCACCTAGTGCAG | 9510 fluorescence intensity (a.u.)
15 | AATCATACTTCTCGAGGTTTGTTTCAGGTTAAACACAATACGGAGTCACCTAGTGCAG | 8720 fluorescence intensity (a.u.)
16 | AATATCATTATCATTGTTGTTGTTGACTCCTCTTTCATGTCGGAGTCACCTAGTGCAG | 9480 fluorescence intensity (a.u.)
17 | GCTCTCCGTCGTGTTCCTCTACTTCTTCTACGTGATTTCCCGGAGTCACCTAGTGCAG | 11700 fluorescence intensity (a.u.)
18 | AGTGTTAGTTGACTGTTAGTCAAAGGTTAGTTTTTTTCGTCGGAGTCACCTAGTGCAG | 9180 fluorescence intensity (a.u.)
19 | ATCTCCTTTTCCGTTGCAAAGGCACTGAGTTTATATTTCGCGGAGTCACCTAGTGCAG | 9020 fluorescence intensity (a.u.)
20 | CTTTGATTTGGCATCAATTTTTTTCATGATCTTTGCTTCTCGGAGTCACCTAGTGCAG | 9620 fluorescence intensity (a.u.)
21 | ACACACACCGCGTCTTGGAGTCCGTGCTACAGCTGACTATCGGAGTCACCTAGTGCAG | 8700 fluorescence intensity (a.u.)
22 | CTAGACCCTTTTGAGTTAACAACACATTCACTGTTTTTCACGGAGTCACCTAGTGCAG | 8830 fluorescence intensity (a.u.)
23 | GGTGGGAGTATTAGATGGGGTCTAATCGAGTATTAGGGTGCGGAGTCACCTAGTGCAG | 8090 fluorescence intensity (a.u.)
24 | CCTATCTATGTATTTGTTGGCGTCCAACGGCTATGATCATCGGAGTCACCTAGTGCAG | 8690 fluorescence intensity (a.u.)
25 | TTTTACACTTCAGTTTTGTTCTTGTTTTTCCAGGCGTATACGGAGTCACCTAGTGCAG | 8170 fluorescence intensity (a.u.)
26 | AGGTTCTGTCCATCTTCACCTCTCCTATTCCATATCATCACGGAGTCACCTAGTGCAG | 10700 fluorescence intensity (a.u.)
27 | ACTCTCAACCACCTGCAGCATGCAACTTCCATGATGCCTCCGGAGTCACCTAGTGCAG | 8370 fluorescence intensity (a.u.)

Copied from above, nos. 23–27
Row | Sequence | binding signal
23 | GGTGGGAGTATTAGATGGGGTCTAATCGAGTATTAGGGTGCGGAGTCACCTAGTGCAG | 8090 fluorescence intensity (a.u.)
24 | CCTATCTATGTATTTGTTGGCGTCCAACGGCTATGATCATCGGAGTCACCTAGTGCAG | 8690 fluorescence intensity (a.u.)
25 | TTTTACACTTCAGTTTTGTTCTTGTTTTTCCAGGCGTATACGGAGTCACCTAGTGCAG | 8170 fluorescence intensity (a.u.)
26 | AGGTTCTGTCCATCTTCACCTCTCCTATTCCATATCATCACGGAGTCACCTAGTGCAG | 10700 fluorescence intensity (a.u.)
27 | ACTCTCAACCACCTGCAGCATGCAACTTCCATGATGCCTCCGGAGTCACCTAGTGCAG | 8370 fluorescence intensity (a.u.)

Next records

Row | Sequence | binding signal
28 | CTGCATGCTCTGTTTCTTCGAGGTTTATGTCAGTCGAAGACGGAGTCACCTAGTGCAG | 8180 fluorescence intensity (a.u.)
29 | GTGAAGGGCGCCCGCGGCGGTGGGGCGGCGGTGGTGGCGGCGGAGTCACCTAGTGCAG | 9650 fluorescence intensity (a.u.)
30 | TCTGTTTTACAATTGTATTCCTGTCAGAATCCTGTGCTTTCGGAGTCACCTAGTGCAG | 9350 fluorescence intensity (a.u.)
31 | GTTGCTTGGGATCACGTTTCTTGACTTTTGTAGGATTTAGCGGAGTCACCTAGTGCAG | 8830 fluorescence intensity (a.u.)
32 | TAATCCTAATCCCAGAACTATCCCATGTTTTGCATCATACCGGAGTCACCTAGTGCAG | 9500 fluorescence intensity (a.u.)
33 | CTTCGGCGCCGGAGCAGGGCGGCGGCGCAGGCGAAGGCGGCGGAGTCACCTAGTGCAG | 15100 fluorescence intensity (a.u.)
34 | ATTTTTTTTTCCTTATACATTTCCTTTGCTTTTTTTTTTACGGAGTCACCTAGTGCAG | 9020 fluorescence intensity (a.u.)
35 | TGGGGAGGCAGGAGTGCATGTTGGGGAGGAGACGATGACGCGGAGTCACCTAGTGCAG | 10200 fluorescence intensity (a.u.)
36 | TTTTTAACTTTTTTATAACTTTTTGAACGTCATGCACACACGGAGTCACCTAGTGCAG | 8500 fluorescence intensity (a.u.)
37 | GACGCTGTTGACTTTTTCTCACATGTTTGACCATTCGTCTCGGAGTCACCTAGTGCAG | 28900 fluorescence intensity (a.u.)
38 | CATGTGTTTTAGGGTTGTTTATTTTAAGACGGCGAAAGTACGGAGTCACCTAGTGCAG | 12300 fluorescence intensity (a.u.)
39 | TATCTACAGTACCATAACTTATATTTTGGTTTACCATCGACGGAGTCACCTAGTGCAG | 9950 fluorescence intensity (a.u.)
40 | TTTATTCGATTCGTTCTGTTCCTACTCACGCCGTGTCAGACGGAGTCACCTAGTGCAG | 11600 fluorescence intensity (a.u.)
41 | GGGATGTTTGGTGTACTTTTTCCTCCTACTAATGTCCCAACGGAGTCACCTAGTGCAG | 9570 fluorescence intensity (a.u.)
42 | TTCTTCTTCAATCTGGGGCTGTCTCCCAGCTTGTTCATTTCGGAGTCACCTAGTGCAG | 8340 fluorescence intensity (a.u.)
43 | GGCGGGGTTGGGGCGGCAGGCGGCTGTGAGGTTCTTGATTCGGAGTCACCTAGTGCAG | 16100 fluorescence intensity (a.u.)
44 | AAGTGTTTTTATTTTTGTCATATCTATCATATTTAATTTCCGGAGTCACCTAGTGCAG | 10100 fluorescence intensity (a.u.)
45 | GCCCAGATTCATAGTTCTAGAATACGTCCCATCAGGTTTTCGGAGTCACCTAGTGCAG | 8230 fluorescence intensity (a.u.)
46 | GATTCCGAAACGGCTAAAACCGCTTTCACACTGCCTCTTTCGGAGTCACCTAGTGCAG | 8670 fluorescence intensity (a.u.)
47 | TTTTGGTACGTTATCCGTGTTTGAATCGGTTTTTAAGTTCCGGAGTCACCTAGTGCAG | 10800 fluorescence intensity (a.u.)
48 | CTTTCGCCTCATCATCTTCGCCTGTGCGGTCCTTTGACAACGGAGTCACCTAGTGCAG | 8550 fluorescence intensity (a.u.)
49 | TGTATCCCTATTCTTATTCTACCTTGTTCTAGTCAAACACCGGAGTCACCTAGTGCAG | 10300 fluorescence intensity (a.u.)
50 | TAATATTTGTAGTGTTCGAGTAGGAATCTGTTTTTATTTTCGGAGTCACCTAGTGCAG | 8780 fluorescence intensity (a.u.)
51 | GCATACCTCTTCAGCTTTTCTTAGGTCCCATTCTTCTCTCCGGAGTCACCTAGTGCAG | 11400 fluorescence intensity (a.u.)
52 | TATGATCTTTCTATGCTTAAGGTTCCTCATGACATAACTGCGGAGTCACCTAGTGCAG | 10000 fluorescence intensity (a.u.)
53 | CGACGGTTTGGATTATTTCTACTTGTAGTATATACTACAACGGAGTCACCTAGTGCAG | 8410 fluorescence intensity (a.u.)
54 | GCATCACTATTCACTCCATGTTCTCTCTTCCTACTCTCCACGGAGTCACCTAGTGCAG | 8250 fluorescence intensity (a.u.)
